# In patent US20100181197A1 (GE HEALTHCARE BIO-SCIENCES AB, priority 2007, published 2010):
# Experiment: general procedure: Fmoc solid-phase peptide synthesis; Wang resin; HBTU/HOBt, DIPEA
# Details: whole synthesis, scale 100 mg resin-bound peptide cleaved
substance,measurement,value
H2N-Glu-Gly-Asp-Gly-Lys-COOH,isolated mass,35 mg
